Further values from the same series stand in other lists.
Tested on: terminal cancer patients
Assay: Phase I/II open label dose escalation study, glucose levels, 3 hour continuous infusion
Assay type: in vivo, human
Description: Cyclocreatine was tested in humans in a phase I/II open label dose escalation study. […] Cyclocreatine was administered at doses that ranged from 10 mg/Kg to 100 mg/Kg. The schedule of administration of cyclocreatine is described in Table 4.
Cohorts of 3 patients were administered drug at each dose level, via a 3 hour continuous infusion in one liter volume of saline. The first week patients received cyclocreatine once, the second week patients received cyclocreatine twice, the third week three times, the fourth week four times, the fifth week five times. On weeks six and seven, no drug was administered to allow the drug to wash out. On week eight, cyclocreatine was given five times. The study included a total of 23 patients (18 male, 5 female) with a median age of 71 years (range 54-85). The patients had different types of malignancies. Eligibility requirements included patients who have failed standard therapy or for whom no therapy was available, normal organ function, have recovered from prior therapies, probability of survival of greater than three months. Reasons for exclusion included: major surgery, life threatening concurrent illness and CNS metastasis. Blood samples were collected at baseline and 1 day before and after the last weekly drug administration on days 1, 7, 9, 14, 17, 21, 25, 28, 33, 40, 47, 49, 54, 61, and 69. Glucose levels were determined for these collected blood samples. […] Not all patients experienced a significant drop in glucose although the trend was there. FIGS. 14 and 15 illustrate graphically individual patients' glucose levels upon treatment with 60 mg/Kg or 80 mg/Kg cyclocreatine. Patient (A) at the 80 mg/Kg dose was diabetic and had many serious complications due to their disease. […] It should be noted that an insufficient number of readings was made shortly after drug administration. It is interesting to note that several patients who were diabetic or had higher glucose levels than normal did respond to cyclocreatine, onen example being illustrated in FIG. 16.

`NC1=NCCN1CC(=O)O` [cyclocreatine] showed a Glucose (Patient 15, 80 mg/Kg, Study Day 17) of 63 mg/dL, a Glucose (Patient 15, 80 mg/Kg, Study Day 21) of 72 mg/dL and a Glucose (Patient 15, 80 mg/Kg, Study Day 25) of 62 mg/dL. The Glucose (Patient 15, 80 mg/Kg, Study Day 28) was 89 mg/dL, the Glucose (Patient 15, 80 mg/Kg, Study Day 33) was 67 mg/dL and the Glucose (Patient 15, 80 mg/Kg, Study Day 40) was 106 mg/dL. For the same molecule, the Glucose (Patient 15, 80 mg/Kg, Study Day 47) was 77 mg/dL, the Glucose (Patient 15, 80 mg/Kg, Study Day 49) was 89 mg/dL and the Glucose (Patient 15, 80 mg/Kg, Study Day 54) was 87 mg/dL. For the same molecule, the Glucose (Patient 15, 80 mg/Kg, Study Day 61) was 81 mg/dL, the Glucose (Patient 15, 80 mg/Kg, Study Day 69) was 81 mg/dL and the Glucose (Patient 16, 80 mg/Kg, Study Day 0) was 182 mg/dL. It also gave a Glucose (Patient 16, 80 mg/Kg, Study Day 1) of 102 mg/dL, a Glucose (Patient 16, 80 mg/Kg, Study Day 7) of 102 mg/dL and a Glucose (Patient 16, 80 mg/Kg, Study Day 9) of 68 mg/dL. For the same molecule, the Glucose (Patient 16, 80 mg/Kg, Study Day 14) was 94 mg/dL, the Glucose (Patient 16, 80 mg/Kg, Study Day 17) was 47 mg/dL and the Glucose (Patient 16, 80 mg/Kg, Study Day 21) was 30 mg/dL. It also gave a Glucose (Patient 17, 100 mg/Kg, Study Day 0) of 121 mg/dL, a Glucose (Patient 17, 100 mg/Kg, Study Day 1) of 122 mg/dL and a Glucose (Patient 17, 100 mg/Kg, Study Day 7) of 127 mg/dL. It also gave a Glucose (Patient 17, 100 mg/Kg, Study Day 9) of 145 mg/dL, a Glucose (Patient 17, 100 mg/Kg, Study Day 14) of 71 mg/dL and a Glucose (Patient 17, 100 mg/Kg, Study Day 17) of 150 mg/dL. For the same molecule, the Glucose (Patient 17, 100 mg/Kg, Study Day 21) was 104 mg/dL, the Glucose (Patient 17, 100 mg/Kg, Study Day 25) was 102 mg/dL and the Glucose (Patient 17, 100 mg/Kg, Study Day 28) was 125 mg/dL. The Glucose (Patient 17, 100 mg/Kg, Study Day 33) was 136 mg/dL, the Glucose (Patient 17, 100 mg/Kg, Study Day 40) was 162 mg/dL and the Glucose (Patient 17, 100 mg/Kg, Study Day 47) was 108 mg/dL. The Glucose (Patient 17, 100 mg/Kg, Study Day 49) was 80 mg/dL, the Glucose (Patient 17, 100 mg/Kg, Study Day 54) was 114 mg/dL and the Glucose (Patient 17, 100 mg/Kg, Study Day 61) was 122 mg/dL. The Glucose (Patient 17, 100 mg/Kg, Study Day 69) was 86 mg/dL, the Glucose (Patient 18, 100 mg/Kg, Study Day 0) was 122 mg/dL and the Glucose (Patient 18, 100 mg/Kg, Study Day 1) was 98 mg/dL. It also gave a Glucose (Patient 18, 100 mg/Kg, Study Day 7) of 104 mg/dL, a Glucose (Patient 18, 100 mg/Kg, Study Day 9) of 84 mg/dL and a Glucose (Patient 18, 100 mg/Kg, Study Day 14) of 126 mg/dL. It also gave a Glucose (Patient 18, 100 mg/Kg, Study Day 17) of 97 mg/dL, a Glucose (Patient 18, 100 mg/Kg, Study Day 21) of 85 mg/dL and a Glucose (Patient 18, 100 mg/Kg, Study Day 25) of 80 mg/dL. For the same molecule, the Glucose (Patient 18, 100 mg/Kg, Study Day 28) was 71 mg/dL, the Glucose (Patient 18, 100 mg/Kg, Study Day 33) was 119 mg/dL and the Glucose (Patient 18, 100 mg/Kg, Study Day 47) was 114 mg/dL. It also gave a Glucose (Patient 18, 100 mg/Kg, Study Day 49) of 95 mg/dL, a Glucose (Patient 18, 100 mg/Kg, Study Day 54) of 49 mg/dL and a Glucose (Patient 18, 100 mg/Kg, Study Day 61) of 80 mg/dL. It also gave a Glucose (Patient 18, 100 mg/Kg, Study Day 69) of 84 mg/dL, a Glucose (Patient 19, 100 mg/Kg, Study Day 0) of 115 mg/dL and a Glucose (Patient 19, 100 mg/Kg, Study Day 1) of 101 mg/dL. It also gave a Glucose (Patient 19, 100 mg/Kg, Study Day 7) of 87 mg/dL, a Glucose (Patient 19, 100 mg/Kg, Study Day 9) of 92 mg/dL and a Glucose (Patient 19, 100 mg/Kg, Study Day 21) of 50 mg/dL. It also gave a Glucose (Patient 20, 100 mg/Kg, Study Day 0) of 104 mg/dL, a Glucose (Patient 20, 100 mg/Kg, Study Day 1) of 104 mg/dL and a Glucose (Patient 20, 100 mg/Kg, Study Day 7) of 160 mg/dL. For the same molecule, the Glucose (Patient 20, 100 mg/Kg, Study Day 9) was 77 mg/dL, the Glucose (Patient 20, 100 mg/Kg, Study Day 14) was 90 mg/dL and the Glucose (Patient 20, 100 mg/Kg, Study Day 17) was 151 mg/dL. It also gave a Glucose (Patient 20, 100 mg/Kg, Study Day 21) of 76 mg/dL, a Glucose (Patient 20, 100 mg/Kg, Study Day 25) of 111 mg/dL and a Glucose (Patient 20, 100 mg/Kg, Study Day 28) of 137 mg/dL. It also gave a Glucose (Patient 20, 100 mg/Kg, Study Day 33) of 165 mg/dL, a Glucose (Patient 20, 100 mg/Kg, Study Day 40) of 141 mg/dL and a Glucose (Patient 20, 100 mg/Kg, Study Day 47) of 101 mg/dL. It also gave a Glucose (Patient 20, 100 mg/Kg, Study Day 49) of 99 mg/dL, a Glucose (Patient 20, 100 mg/Kg, Study Day 54) of 91 mg/dL and a Glucose (Patient 21, 100 mg/Kg, Study Day 0) of 158 mg/dL. It also gave a Glucose (Patient 21, 100 mg/Kg, Study Day 1) of 178 mg/dL, a Glucose (Patient 21, 100 mg/Kg, Study Day 7) of 99 mg/dL and a Glucose (Patient 21, 100 mg/Kg, Study Day 9) of 246 mg/dL. The Glucose (Patient 21, 100 mg/Kg, Study Day 14) was 100 mg/dL, the Glucose (Patient 22, 100 mg/Kg, Study Day 0) was 137 mg/dL and the Glucose (Patient 22, 100 mg/Kg, Study Day 1) was 170 mg/dL. It also gave a Glucose (Patient 22, 100 mg/Kg, Study Day 7) of 108 mg/dL, a Glucose (Patient 22, 100 mg/Kg, Study Day 9) of 91 mg/dL and a Glucose (Patient 22, 100 mg/Kg, Study Day 14) of 87 mg/dL. The Glucose (Patient 22, 100 mg/Kg, Study Day 17) was 84 mg/dL, the Glucose (Patient 22, 100 mg/Kg, Study Day 21) was 77 mg/dL and the Glucose (Patient 22, 100 mg/Kg, Study Day 25) was 77 mg/dL. For the same molecule, the Glucose (Patient 22, 100 mg/Kg, Study Day 28) was 109 mg/dL, the Glucose (Patient 22, 100 mg/Kg, Study Day 33) was 143 mg/dL and the Glucose (Patient 22, 100 mg/Kg, Study Day 40) was 107 mg/dL. For the same molecule, the Glucose (Patient 22, 100 mg/Kg, Study Day 47) was 121 mg/dL, the Glucose (Patient 22, 100 mg/Kg, Study Day 49) was 119 mg/dL and the Glucose (Patient 22, 100 mg/Kg, Study Day 54) was 71 mg/dL. For the same molecule, the Glucose (Patient 22, 100 mg/Kg, Study Day 61) was 109 mg/dL, the Glucose (Patient 22, 100 mg/Kg, Study Day 69) was 107 mg/dL and the Glucose (Patient 23, 100 mg/Kg, Study Day 0) was 168 mg/dL. The Glucose (Patient 23, 100 mg/Kg, Study Day 1) was 216 mg/dL, the Glucose (Patient 23, 100 mg/Kg, Study Day 7) was 228 mg/dL and the Glucose (Patient 23, 100 mg/Kg, Study Day 9) was 173 mg/dL. It also gave a Glucose (Patient 23, 100 mg/Kg, Study Day 17) of 184 mg/dL, a Glucose (Patient 23, 100 mg/Kg, Study Day 21) of 163 mg/dL and a Glucose (Patient 23, 100 mg/Kg, Study Day 25) of 257 mg/dL. It also gave a Glucose (Patient 23, 100 mg/Kg, Study Day 28) of 325 mg/dL and a Glucose (Patient 23, 100 mg/Kg, Study Day 33) of 288 mg/dL.

Source: patent US20050256134A1, “Use of creatine analogues and creatine kinase modulators for the prevention and treatment of glucose metabolic disorders” (AVICENA GROUP, INC., priority 1995, published 2005)
